Assay results as given in PubChem BioAssay AID2551 (National Center for Advancing Translational Sciences (NCATS), 2010).
The campaign covered roughly 310,000 compounds. About 17,000 (5.5%) were called active. Inconclusive means that the source gave no clear call. Such entries were picked first, then a sample of the others. Calls follow the shape of the dose curve; as a rule, active = well fitted inhibition curve with a large enough effect; inconclusive = small, poorly fitted or top-dose-only effect, or effect the other way; inactive = no such curve, though single readings can be large or run the other way. Potencies of inconclusive entries are doubtful fits and often do not repeat.

By UniProt entry, the sequences of proteins in these tests, tags left out. Where a name states a change or a piece, a line headed by the entry shows the natural chain unless it says otherwise.
UniProt P51450: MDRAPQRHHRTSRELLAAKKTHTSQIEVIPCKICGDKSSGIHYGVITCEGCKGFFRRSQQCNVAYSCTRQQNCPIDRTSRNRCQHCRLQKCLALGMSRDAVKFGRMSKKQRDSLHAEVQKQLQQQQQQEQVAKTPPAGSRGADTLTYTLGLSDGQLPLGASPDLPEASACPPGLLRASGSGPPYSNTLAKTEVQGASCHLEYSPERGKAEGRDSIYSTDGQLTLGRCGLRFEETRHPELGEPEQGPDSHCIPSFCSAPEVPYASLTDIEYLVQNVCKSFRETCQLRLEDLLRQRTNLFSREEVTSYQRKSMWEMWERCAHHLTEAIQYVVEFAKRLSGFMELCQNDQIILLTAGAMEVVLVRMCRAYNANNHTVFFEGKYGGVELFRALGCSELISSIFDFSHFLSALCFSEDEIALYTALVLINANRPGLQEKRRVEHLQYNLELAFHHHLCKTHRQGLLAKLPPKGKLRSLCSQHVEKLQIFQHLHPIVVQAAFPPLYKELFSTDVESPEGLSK

Each molecule was assayed against Nuclear receptor ROR-gamma (Mus musculus) (UniProt P51450) (assay: qHTS for inhibitors of ROR gamma transcriptional activity). Conditions: Drosophila S2 Gal4-RORgamma UAS-luciferase reporter, 20 h; series mostly up to 53.6 µM.
How it was run: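 Using a luciferase readout, inhibitors were identified by reduced reporter activity in Drosophila cells coexpressing a copper-inducible Gal4–ROR gamma fusion and UAS-driven Photinus luciferase, incubated 20 hr after 700 uM copper sulfate.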
Also: nearly all actives have a fitted effect of over 60% in size.
Potency is read from the fitted curve at half-maximal effect.

SMILES	Potency
Cc1ccc(-c2cc3nc(-c4ccc(Br)cc4)cc(N)n3n2)cc1	inconclusive: 20 µM [inhibitor, single point]
O=C(NCCc1csc(-c2cccnc2)n1)c1cccc2ccccc12	inconclusive: 6.31 µM [activator, full curve, poor fit]
Cc1ccccc1OCCn1c(CCNC(=O)C(C)C)nc2ccccc21	inconclusive: 31.6 µM [activator, single point]
Cc1cc(C)cc(N(CCC#N)C(=O)CSC2=Nc3ccccc3C3CC=NN23)c1 (stereo not given)	inactive
Cn1nc(C(F)(F)F)c2cc(NC(=O)OCc3ccc(F)cc3)sc21	inconclusive: 17.8 µM [activator, partial curve, poor fit]
Cc1cc([N+](=O)[O-])ccc1-c1ccc(/C=N/NC(=O)Cc2ccccc2)o1	inconclusive: 35.5 µM [inhibitor, single point]
CC1(C)CC(=O)C(C(C#Cc2ccccc2)C2=C(O)CC(C)(C)CC2=O)=C(O)C1	inconclusive: 14.1 µM [activator, partial curve]
Cc1nc(N2CCN(C(=O)c3ccco3)CC2)nc2c1C(=O)CCC2	inconclusive: 12.6 µM [inhibitor, single point]
COc1ccc(NC(=S)SC)cc1OC	active: 20 µM
CCCn1nc(NS(=O)(=O)c2ccccc2)c2cc3ccccc3nc21	inconclusive: 28.2 µM [inhibitor, single point]
CC(=O)Nc1ccc(N(C(=O)c2ccccn2)C(C(=O)NC2CCCCC2)c2ccc(F)cc2)cc1 (stereo not given)	inactive
Cc1cc(NC(=O)CSc2c[nH]c3ccccc23)no1	inconclusive: 35.5 µM [activator, single point]
Cc1cc2nc3n(c2cc1C)CCCN3	active: 1.58 µM
Cc1ccc(N/C=C/C(=O)C(C)(C)C)c(O)c1	inconclusive: 17.8 µM [inhibitor, single point]
CCCCCc1nc2sc3c(c2c(=O)n1NC(=O)c1ccc([N+](=O)[O-])cc1)CC(C)(C)OC3	active: 22.4 µM
CC(/C=N/NC(=O)c1cc(C(C)C)[nH]n1)=C\c1ccccc1	inconclusive: 20 µM [activator, partial curve]
COc1cc(/C=N/NC(=O)c2cc(-c3ccccc3OC(C)C)nc3ccccc23)ccc1O	inconclusive: 0.1 µM [activator, full curve, poor fit]
CCCCc1ccc(NC(=O)NCc2cccnc2)cc1	inactive
COc1cc(/C=N/NC(=O)c2nnn(-c3nonc3N)c2C(C)C)ccc1OCc1ccccc1	inconclusive: 17.8 µM [activator, single point]
COc1ccc(/C=C(\C#N)c2n[nH]c(Cn3cncn3)n2)cc1	inconclusive: 3.98 µM [activator, single point]
O=C(NC(=S)NCc1ccccc1)c1ccccc1Br	active: 8.91 µM
O=C(CNC(=O)c1sc2ccccc2c1Cl)NCc1cccnc1	inconclusive: 12.6 µM [inhibitor, partial curve]
O=C(Oc1ccc(OC(=O)C2CCC2)cc1)C1CCC1	active: 11.2 µM
COc1cc(/C=N/NC(=O)c2ccncc2)ccc1OCC(=O)Nc1cccc([N+](=O)[O-])c1	inconclusive: 0.158 µM [activator, full curve, poor fit]

SMILES	Potency
Cc1ccc(N2CCN(C(=S)c3ccc(N(C)C)cc3)CC2)cc1	inconclusive: 22.4 µM [inhibitor, single point]
CCOC(=O)C(=Cc1ccc(-n2cncn2)cc1)C(=O)OCC	inconclusive: 20 µM [inhibitor, single point]
Cc1cnc(C(=O)Nc2ccc(C(C)C)cc2)cn1	inconclusive: 5.01 µM [activator, partial curve]
CC(C)(C)c1ccc(C(=O)NCC(=O)OCN2C(=O)c3ccccc3C2=O)cc1	inconclusive: 14.1 µM [activator, single point]
O=C(Nc1ccc(CN2CCS(=O)(=O)CC2)cc1)c1ccc(C(F)(F)F)cc1	inconclusive: 2.51 µM [activator, full curve]
CCOc1ccc(/C=N/NC(=O)c2cc3c(OC)cccc3[nH]2)cc1	inconclusive: 35.5 µM [inhibitor, single point]
CCNC(=O)c1c(C)[nH]c(C(=O)OCC)c1C	inactive
CC(=O)c1ccc(OCC(O)CN2CCN(CC(O)COc3ccc(C(C)=O)cc3)CC2)cc1 (stereo not given)	inconclusive: 2.82 µM [activator, single point]
Cc1ccc(C(=O)COC(=O)c2ccc(-c3cnc4ccccc4n3)cc2)cc1C	inactive
Cc1ccc(N2CCN(CC(O)COc3cccc(C)c3)CC2)cc1 (stereo not given)	inactive
N#Cc1cc(S(=O)(=O)c2ccccc2)c(N)[nH]c1=O	inconclusive: 0.0224 µM [inhibitor, full curve]
CCCn1c(C(C)Nc2nc(-c3ccc(C)cc3)cs2)nc2cc(Cl)c(N3CCCCC3)cc21 (stereo not given)	active: 7.08 µM
COc1ccccc1/C=C/C(=O)c1ccccc1	inconclusive: 35.5 µM [inhibitor, single point]
Cc1[nH]n(-c2nc(-c3ccccc3)cc(=O)[nH]2)c(=O)c1CCO	inconclusive: 35.5 µM [inhibitor, single point]
COc1ccc(CNC(=O)C[C@H]2C(=O)N(CCc3ccccc3)C[C@@H]2Cc2ccccc2)cc1	inactive
COc1cccc2cc(C(=O)Nc3ccc(S(=O)(=O)NCC4CCCO4)cc3)c(=O)oc12 (stereo not given)	inconclusive: 5.62 µM [activator, single point]
CCCCN1C(=O)C2(NNc3ccccc3O2)c2ccccc21 (stereo not given)	inconclusive: 15.8 µM [inhibitor, single point]
COc1cccc(N/C(SCc2ccccc2C)=C(/C#N)C(=O)NCc2cccs2)c1	inactive
O=C(COC(=O)c1ccccc1C(=O)c1ccc(Cl)c([N+](=O)[O-])c1)NC1CCCCCC1	active: 4.47 µM
O=C(Nc1ccccc1)c1cc2ccccc2o1	inconclusive: 35.5 µM [inhibitor, single point]
CN(C)c1ccc(-c2nc(N(C)C)c3ccccc3n2)cc1	inactive
COCc1c(C(=O)OC)nnn1-c1ccc(C(F)(F)F)cc1[N+](=O)[O-]	inconclusive: 31.6 µM [inhibitor, single point]
CCOc1ccc(NC(=S)N(CCc2c(C)[nH]c3ccc(C)cc23)Cc2ccco2)cc1	inconclusive: 12.6 µM [inhibitor, single point]
O=C(Nc1ncc(Cc2ccccc2Cl)s1)c1ccc([N+](=O)[O-])cc1	active: 2 µM

3 compounds already listed, arranged by molecular weight, high to low:
SMILES	Potency
CC(=O)c1ccc(OCC(O)CN2CCN(CC(O)COc3ccc(C(C)=O)cc3)CC2)cc1 (stereo not given)	inconclusive: 2.82 µM [activator, single point]
Cc1[nH]n(-c2nc(-c3ccccc3)cc(=O)[nH]2)c(=O)c1CCO	inconclusive: 35.5 µM [inhibitor, single point]
O=C(Nc1ccccc1)c1cc2ccccc2o1	inconclusive: 35.5 µM [inhibitor, single point]

Next compounds follow:

SMILES	Potency
COc1cc(NC(=O)c2cc([N+](=O)[O-])ccc2Br)ccc1NC(=O)c1ccco1	inconclusive: 10 µM [inhibitor, partial curve]
COC(=O)c1sc(NC(=O)CSc2nnc(C(C)C)n2C)nc1C	inactive
CCCCc1n[nH]c(=S)n1Cc1ccc(Cl)cc1	active: 3.98 µM
Cn1cc(-c2nc3cnc(Oc4ccccc4)nc3n(Cc3cccs3)c2=O)c2ccccc21	inactive
Cc1ccc(C)c(Nc2ccc(C(=O)NCCc3ccccc3)cn2)c1	inconclusive: 17.8 µM [activator, single point]
CNC(=O)COC(=O)/C=C/c1nc2ccccc2s1	inactive
Cc1cc(-c2ccccc2)nc(N2CCC(C(=O)NCc3ccccc3Cl)CC2)n1	inconclusive: 0.794 µM [inhibitor, partial curve]
O=C(Oc1cncc(Cl)c1)c1ccco1	inconclusive: 7.94 µM [inhibitor, single point]
Cc1ccc2oc(=O)c(/C=C(\O)C(C)(C)C)nc2c1	active: 5.01 µM
CCC(C)NS(=O)(=O)c1ccc(S(=O)(=O)N2CCCC3(CCCCC3)C2)cc1 (stereo not given)	inconclusive: 12.6 µM [inhibitor, single point]
CCOc1ccc(NS(=O)(=O)c2csc(C(N)=O)c2)cc1	inconclusive: 31.6 µM [activator, single point]
COC(=O)c1ccc(/C=C(\C#N)C(=O)NC(C)c2ccccc2)cc1 (stereo not given)	active: 0.501 µM
COc1ccccc1NC(=O)Cc1coc2cc(C)ccc12	inconclusive: 35.5 µM [inhibitor, single point]
CCN(CC)c1cc2nc(C)n(Cc3ccccc3)c(=O)c2cc1NC(=O)C1CC1	inconclusive: 12.6 µM [activator, single point]
Cc1ccc(S(=O)(=O)N(C)C)cc1NC(=S)N1CCCCC1CO (stereo not given)	inactive
CCOC(=O)CNS(=O)(=O)c1cc(-c2nnc(Nc3ccc4c(c3)OCO4)c3ccccc23)ccc1C	inconclusive: 11.2 µM [activator, partial curve]
CCCNC(=O)c1cc(-c2ccco2)on1	inconclusive: 8.91 µM [inhibitor, partial curve, poor fit]
Clc1ccc(-c2cn3nc4c(nc3n2)CCCC4)cc1	inconclusive: 0.0891 µM [activator, full curve, poor fit]
Cc1ccc(S(=O)(=O)N2CCN(C(=O)c3ccc(N4CCCCC4)c([N+](=O)[O-])c3)CC2)cc1	inconclusive: 7.94 µM [activator, partial curve]
Cc1cc(NC(=O)c2sc(Nc3ccc(F)cc3)nc2N)no1	inconclusive: 12.6 µM [activator, partial curve]
Clc1ccc2c(N/N=C/c3cccnc3)ccnc2c1	inconclusive: 17.8 µM [inhibitor, single point]
CCn1c(C(C#N)/C(=N\S(=O)(=O)c2cccs2)c2ccccc2)nc2ccccc21 (stereo not given)	inactive
